Experimental data published in the supplement of paper PMC8551327.
Values joined by “and” are separate entries in the source; they are usually repeats but may differ in a detail not shown here. Identical values can stand only once. Counter-ions that a name gives are not always drawn. Some of the results follow. No stated cut-off is given here; in the data, active = 1.25 or more and inactive = the rest. Single values are uncertain, as repeats are few or missing.

Tested on: Kcc2-LUC knock-in mouse primary cortical neurons (Kcc2 promoter reporter)
Experiment: Kcc2 promoter-driven luciferase activity relative to vehicle control (fold of vehicle (ratio)); higher = stronger Kcc2 promoter activation (Kcc2 expression enhancer)
Details: 100 nM; 48 h

Kcc2 promoter-driven luciferase activity, 1.59 (active) and 1.2 (inactive):
Nc1ncnc2c1ncn2C1OC(CO)C(O)C1O (centres undefined) [Xylosyladenine]

Kcc2 promoter-driven luciferase activity, active:
CC(=O)Nc1ccc(-c2nc3ccccc3s2)cc1 [N-[4-(1,3-benzothiazol-2-yl)phenyl]acetamide] 1.28
CC(=O)N1CCN(c2ccc(OCC3COC(Cn4ccnc4)(c4ccc(Cl)cc4Cl)O3)cc2)CC1 (centres undefined) [Ketoconazole] 1.26
Cc1ccc(S(=O)(=O)NC(=O)NC2=NC(C)(C)N(c3ccc(Cl)c(Cl)c3)C(N)=N2)cc1 1.39
CSc1ccc(NC(=O)CCl)cc1 [2-Chloro-N-(4-methylsulfanylphenyl)acetamide] 1.33
CC[C@@]1(O)C[C@H](O[C@H]2C[C@H](N(C)C)[C@H](O[C@H]3C[C@H](O)[C@H](O[C@H]4CCC(=O)[C@H](C)O4)[C@H](C)O3)[C@H](C)O2)c2c(cc3c(c2O)C(=O)c2c(O)cccc2C3=O)[C@H]1C(=O)OC [aclarubicin] 1.49
Nc1cc2[nH]cnc2c(=O)[nH]1 [Dezaguanine] 2
Nc1nc(O)c2[nH]nnc2n1 [8-Azaguanine] 1.58
C[n+]1ccc(Nc2ccc(NC(=O)c3ccc(Nc4cc[n+](C)c5ccc([N+](=O)[O-])cc45)cc3[N+](=O)[O-])cc2)cc1 [Quinolinium, dichloride] 1.45
COC(=O)C1C2CC3c4[nH]c5cc(OC)ccc5c4CCN3CC2CC(OC(=O)CCc2cc(OC)c(OC)c(OC)c2)C1OC (centres undefined) [Dihydroisorescinnamine] 1.32
CCC1CN2CCc3cc(OC)c(OC)cc3C2CC1CC1c2cc(OC)c(OC)cc2CCN1C(=O)C(Cc1c[nH]c2ccccc12)NC(=O)OC(C)(C)C (centres undefined) 1.25

Kcc2 promoter-driven luciferase activity, inactive:
COc1ccc(/C=C/c2cc(OC)c(OC)c(OC)c2)cc1OP(=O)(O)O 0.591
O=c1c(O)c(-c2ccc(O)c(O)c2)oc2cc(O)ccc12 [Fisetin] 1.11
COc1ccc(OC)c(-c2cc(=O)c3c(OC)c(OC)c(OC)c(OC)c3o2)c1 [2',5',5,6,7,8-Hexamethoxyflavone] 0.41
Cc1cc(C)c(NC(=O)/C=C/c2ccccc2)c(C)c1 [N-Mesityl-3-phenylacrylamide] 0.34
Cc1ccc([N+](=O)[O-])cc1NC(=O)c1cccc([N+](=O)[O-])c1O [Benzamide, 2-hydroxy-N-(2-methyl-5-nitrophenyl)-3-nitro-] 0.92
CC1=C2C(=CO[C@H](C)[C@H]2C)C(=O)C(C(=O)O)=C1O [Citrinin] 0.85
O=C(O)c1ccccc1-c1ccccc1C(=O)Nc1ccc2c(c1)Cc1ccccc1-2 [2-[2-(9H-fluoren-2-ylcarbamoyl)phenyl]benzoic acid] 0.5
CCC(C#N)(c1ccccc1)N(CCc1ccccc1)C(=O)c1ccccc1 (centres undefined) [N-(1-Cyano-1-phenylpropyl)-N-phenethylbenzamide] 0.95
OC[C@H]1O[C@@H]2O[C@H]3[C@H](O)[C@@H](O)[C@@H](O[C@H]4[C@H](O)[C@@H](O)[C@@H](O[C@H]5[C@H](O)[C@@H](O)[C@@H](O[C@H]6[C@H](O)[C@@H](O)[C@@H](O[C@H]7[C@H](O)[C@@H](O)[C@@H](O[C@H]8[C@H](O)[C@@H](O)[C@@H](O[C@H]1[C@H](O)[C@H]2O)O[C@@H]8CO)O[C@@H]7CO)O[C@@H]6CO)O[C@@H]5CO)O[C@@H]4CO)O[C@@H]3CO 0.77
O=[N+]([O-])c1ccccc1S(=O)(=O)c1ccccc1[N+](=O)[O-] [Bis(2-nitrophenyl)sulfone] 1.07
O=C(O)c1ccc(N[C@H](c2ccccc2)c2ccc3cccnc3c2O)cc1 1
CN(C)c1ccc(/C=C/C(=O)c2ccccc2)cc1Br [3-(3-Bromo-4-(dimethylamino)phenyl)-1-phenyl-2-propen-1-one] 1.06
CC1=C(CCC(=O)O)c2cc3nc(cc4[nH]c(cc5[nH]c(cc1n2)c(C)c5C(C)O)c(C)c4C(C)O)C(C)=C3CCC(=O)O (centres undefined) [Hematoporphyrin] 1.02
Cc1ccc(NC(=O)/C=C/c2ccccc2)c(C)c1 [N-(2,4-dimethylphenyl)-3-phenylacrylamide] 0.34
CC1=CC(C)(C)N=C2SC(c3ccc(N)cc3)=NN12 1.13
C(=C/c1nc2ccccc2o1)/c1ccc2c(c1)OCO2 [2-[(Z)-2-(1,3-benzodioxol-5-yl)ethenyl]-1,3-benzoxazole] 0.31
CCOC(=O)c1ccc(-c2cc(C)no2)[nH]1 [Ethyl 5-(3-methyl-5-isoxazolyl)-1H-pyrrole-2-carboxylate] 1.09
CN(C)CCNC(=O)c1cccc2[nH]c(-c3ccncc3)nc12 [1H-Benzimidazole-4-carboxamide, hydrochloride] 1.13
Nc1ccc2cc3ccc(N)cc3nc2c1 [Proflavine monohydrochloride] 0.8
N#CCCN(CCC#N)c1ccc(C=Nc2ccc(F)cc2)cc1 0.99
CCOC(=O)C(C)NC(=O)N(C)C12CC3CC(CC(C3)C1)C2 (centres undefined) [Ethyl 2-[[1-adamantyl(methyl)carbamoyl]amino]propanoate] 0.91
Cc1cc(O)c(C(C)C)cc1C1(c2cc(C(C)C)c(O)cc2C)OC(=O)c2ccccc21 [Thymophthalein] 0.79
CC1=C\C(O)CC(=O)Cc2nc(co2)C(=O)N2CCC=C2C(=O)OC(C(C)C)C(C)/C=C/C(=O)NC/C=C\1.CCC1NC(=O)C(NC(=O)c2ncccc2O)C(C)OC(=O)C(c2ccccc2)NC(=O)C2CC(=O)CCN2C(=O)C(Cc2ccc(N(C)C)cc2)N(C)C(=O)C2CCCN2C1=O (centres undefined) [Mikamycin, B grade] 0.91
CC(C)=CCc1c2c(c3occ(-c4ccc(O)c(O)c4)c(=O)c3c1O)C=CC(C)(C)O2 [Pomiferin] 0.877
Cc1cc2cc3cc(C)c(N)cc3nc2cc1N [Acridine Yellow G] 0.48
CN(NC1=NCCO1)c1ccc2ccccc2c1 [2-(2-Methyl-2-(2-naphthyl)hydrazino)-4,5-dihydro-1,3-oxazole] 0.88
C=C(NC(=O)C(=C)NC(=O)c1csc(C2=N[C@@H]3c4csc(n4)C4NC(=O)c5csc(n5)C([C@](C)(O)[C@@H](C)O)NC(=O)[C@H]5CSC(=N5)/C(=C/C)NC(=O)C(C(C)O)NC(=O)c5csc(n5)C3(CC2)NC(=O)[C@H](C)NC(=O)C(=C)NC(=O)C(=C)NC(=O)C(C(C)C)N[C@@H]2C=Cc3c([C@@H](C)O)cc(nc3[C@H]2O)C(=O)OC4C)n1)C(N)=O (some centres undefined) [Siomycin A] 0.98
COC1=C(N)C(=O)c2nc(C)ccc2C1=O [7-Amino-6-methoxy-2-methylquinoline-5,8-dione] 1
